Data from paper PMC5323046.

Target: T1, HA-tagged RAB27B (human), O00194
T1 chain: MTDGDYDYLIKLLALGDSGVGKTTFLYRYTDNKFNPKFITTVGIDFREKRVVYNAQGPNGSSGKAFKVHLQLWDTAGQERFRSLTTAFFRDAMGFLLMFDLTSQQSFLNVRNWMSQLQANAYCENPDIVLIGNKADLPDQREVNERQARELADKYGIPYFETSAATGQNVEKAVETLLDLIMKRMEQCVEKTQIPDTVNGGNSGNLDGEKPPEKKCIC
Test: affinity purification with mass spectrometry; 293T-REx cells inducibly expressing N-terminally HA-tagged baits; lysis in MCLB (50 mM Tris pH 7.4, 150 mM NaCl, 0.5% NP40); anti-HA-agarose, elution with HA peptide, trypsin, LC-MS/MS; CompPASS, HCIPs with WDN >=1 and APSM >=2
Settings: remark: other sources report otherwise

binding: binds
B1: SYTL5, Q8TDW5 1-730 (protein)
chain: MSKNSEFINLSFLLDHEKEMILGVLKRDEYLKKVEDKRIRKLKNELLEAKRRSGKTQQEASRVCVHCHRNLGLIFDRGDPCQACSLRVCRECRVAGPNGSWKCTVCDKIAQLRIITGEWFFEEKAKRFKQVNVLGTDVVRQSILRRSPGAEEVQSQEQTRQDAEKSDTSPVAGKKASHDGPKRKGFLLSKFRSATRGEIITPKTDTGRSYSLDLDGQHFRSLKSPPGSDRGSTGSSDLNDQEPGPRTPKSSRSNGVTPGTQSSPAPSTRTVTSVISREYGFENSMDLAAIEGTSQELTKSHRRNTSGTPSIAVSGTSLSSDQSRSELDLSESFTEDSEDTVSIRSKSVPGALDKDSLEETEESIDALVSSQLSTNTHRLASGLSTTSLNSMMSVYSETGDYGNVKVSGEILLHISYCYKTGGLYIFVKNCRNLAIGDEKKQRTDAYVKSYLLPDKSRNNKRKTKIRTGTNPEFNETLKYTISHTQLETRTLQLSVWHYDRFGRNSFLGEVEIPFDSWNFENPTDEWFVLQPKVEFAPDIGLQYKGELTVVLRYIPPEENLMLPPEQLQGNKTFKKGKKKESPVISGGILEVFIKEAKNLTAVKSGGTSDSFVKGYLLPDDSKATKHKTLVIKKSVNPQWNHTFMFSGIHPQDIKNVCLELTIWDKEAFSSNIFLGGVRLNSGSGVSHGKNVDWMDSQGEEQRLWQKMANNPGTPFEGVLMLRSSMGKCRL

Results are given in words; binding and its absence hold for the method and conditions named. In cells and extracts the contact can be indirect. These calls come from enrichment with a bait or labelling near it, and not all partners need be listed. Tags and fused reporters may be left off the sequences shown.
